{"source": "PubChem BioAssay AID1259308 – NCATS – 2017", "aim": "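Candidate targets for better recombinant protein yield in mammalian cells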 (primary screen)", "cells": "human HEK293 embryonic kidney cells stably expressing firefly luciferase (HEK-CMV-Luc2-Hygro)", "knock-down reagent": "single siRNA against human genes, 0.8 pmol siRNA per well", "timing": "72 h", "measurement": "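Reporter luminescence and viable-cell signal on separate replicate plates, given as percent of non-targeting control and median/MAD z-scores, plus per-cell luciferase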", "scale": "total luciferase, z-score: higher = more reporter protein produced", "call rule": "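Active when the median/MAD z-score for overall luciferase is greater than 3; a gene was taken forward for validation with new siRNAs if at least two of its three siRNAs passed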", "calls": "active = raised luciferase; inactive = no rise", "note": "This is a random part of about 59,000 reagents. Over the whole deposit, about 1,510 (2.6%) got an active call. 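Calls use total luciferase alone and ignore viability, so some active siRNAs may act by altering cell number.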 Unmarked entries are inactive. The numbers tell different reagents against one gene apart. Not all columns of the deposit are shown."}
{"Gene": "COQ6 (coenzyme Q6, monooxygenase)", "reagent no.": 1, "total luciferase, z-score": 2.62}
{"Gene": "COQ6 (coenzyme Q6, monooxygenase)", "reagent no.": 2, "total luciferase, z-score": -0.536}
{"Gene": "COQ6 (coenzyme Q6, monooxygenase)", "reagent no.": 3, "total luciferase, z-score": -0.739}
{"Gene": "CARHSP1 (calcium regulated heat stable protein 1)", "reagent no.": 1, "total luciferase, z-score": 1.98}
{"Gene": "CARHSP1 (calcium regulated heat stable protein 1)", "reagent no.": 2, "total luciferase, z-score": -1.88}
{"Gene": "CARHSP1 (calcium regulated heat stable protein 1)", "reagent no.": 3, "total luciferase, z-score": -1.07}
{"Gene": "SYNJ2 (synaptojanin 2)", "reagent no.": 1, "total luciferase, z-score": -2.35}
{"Gene": "SYNJ2 (synaptojanin 2)", "reagent no.": 2, "total luciferase, z-score": -0.811}
{"Gene": "SYNJ2 (synaptojanin 2)", "reagent no.": 3, "total luciferase, z-score": -0.129}

In a second layout: entries from further up
CARHSP1 (calcium regulated heat stable protein 1) #2 | total luciferase, z-score: -1.88
CARHSP1 (calcium regulated heat stable protein 1) #3 | total luciferase, z-score: -1.07
SYNJ2 (synaptojanin 2) #1 | total luciferase, z-score: -2.35

Additional reagents follow.
{"Gene": "CIMAP1B (ciliary microtubule associated protein 1B)", "reagent no.": 1, "total luciferase, z-score": -0.222}
{"Gene": "CIMAP1B (ciliary microtubule associated protein 1B)", "reagent no.": 2, "total luciferase, z-score": 0.955}
{"Gene": "CIMAP1B (ciliary microtubule associated protein 1B)", "reagent no.": 3, "total luciferase, z-score": 0.492}
{"Gene": "AGPAT1 (1-acylglycerol-3-phosphate O-acyltransferase 1)", "reagent no.": 1, "total luciferase, z-score": -1.66}
{"Gene": "AGPAT1 (1-acylglycerol-3-phosphate O-acyltransferase 1)", "reagent no.": 2, "total luciferase, z-score": -1.68}
{"Gene": "AGPAT1 (1-acylglycerol-3-phosphate O-acyltransferase 1)", "reagent no.": 3, "total luciferase, z-score": -1.07}
{"Gene": "CRAT (carnitine O-acetyltransferase)", "reagent no.": 1, "total luciferase, z-score": 1.38}
{"Gene": "CRAT (carnitine O-acetyltransferase)", "reagent no.": 2, "total luciferase, z-score": 1.55}
{"Gene": "CRAT (carnitine O-acetyltransferase)", "reagent no.": 3, "total luciferase, z-score": -1.45}
{"Gene": "CEACAM8 (CEA cell adhesion molecule 8)", "reagent no.": 1, "total luciferase, z-score": -0.00739}
{"Gene": "CEACAM8 (CEA cell adhesion molecule 8)", "reagent no.": 2, "total luciferase, z-score": 2.52}
{"Gene": "CEACAM8 (CEA cell adhesion molecule 8)", "reagent no.": 3, "total luciferase, z-score": 0.729}
